Experimental findings from US20060223116A1 are described below.

These are yes or no findings as the source states them, for the method shown. For some assays here: A result given as binding can be weak or reduced; the word gives no strength. For some assays here: In cells and extracts the contact can be indirect.

Assay [1] addresses FLAG-tagged GATA-3. As to the kind of experiment: overexpression co-IP.
The next assay has as its target c-Maf. Put plainly: co-IP after coexpression in 293T cells, 4B10 blot.
Another assay has as its target NFATc2. Put plainly: co-IP after coexpression in 293T cells, 4B10 blot.
Assay [2] addresses FLAG-tagged GATA-3. As to the kind of experiment: coexpression of FLAG-tagged GATA-3 and T-bet in 293T cells, anti-FLAG agarose IP, 4B10 blot.

B1: T-bet, wild type (expressed from cDNA in 293T or EL4 cells, or from the retrovirus RV-T-bet) (protein, UniProt Q9JKD8 1-530, looked up)
chain: MGIVEPGCGDMLTGTEPMPSDEGRGPGADQQHRFFYPEPGAQDPTDRRAGSSLGTPYSGGALVPAAPGRFLGSFAYPPRAQVAGFPGPGEFFPPPAGAEGYPPVDGYPAPDPRAGLYPGPREDYALPAGLEVSGKLRVALSNHLLWSKFNQHQTEMIITKQGRRMFPFLSFTVAGLEPTSHYRMFVDVVLVDQHHWRYQSGKWVQCGKAEGSMPGNRLYVHPDSPNTGAHWMRQEVSFGKLKLTNNKGASNNVTQMIVLQSLHKYQPRLHIVEVNDGEPEAACSASNTHVFTFQETQFIAVTAYQNAEITQLKIDNNPFAKGFRENFESMYASVDTSVPSPPGPNCQLLGGDPFSPLLSNQYPVPSRFYPDLPGQPKDMISQPYWLGTPREHSYEAEFRAVSMKPTLLPSAPGPTVPYYRGQDVLAPGAGWPVAPQYPPKMSPAGWFRPMRTLPMDPGLGSSEEQGSSPSLWPEVTSLQPEPSDSGLGEGDTKRRRISPYPSSGDSSSPAGAPSPFDKETEGQFYNYFPN
As to B1, the binding result with FLAG-tagged GATA-3 [1] is recorded as “binds”; in the assay with c-Maf, “no binding”; with NFATc2, “no binding”; with FLAG-tagged GATA-3 [2], “binds”.

B2: T-bet Y525F mutant (protein, UniProt Q9JKD8 1-530, looked up)
chain: MGIVEPGCGDMLTGTEPMPSDEGRGPGADQQHRFFYPEPGAQDPTDRRAGSSLGTPYSGGALVPAAPGRFLGSFAYPPRAQVAGFPGPGEFFPPPAGAEGYPPVDGYPAPDPRAGLYPGPREDYALPAGLEVSGKLRVALSNHLLWSKFNQHQTEMIITKQGRRMFPFLSFTVAGLEPTSHYRMFVDVVLVDQHHWRYQSGKWVQCGKAEGSMPGNRLYVHPDSPNTGAHWMRQEVSFGKLKLTNNKGASNNVTQMIVLQSLHKYQPRLHIVEVNDGEPEAACSASNTHVFTFQETQFIAVTAYQNAEITQLKIDNNPFAKGFRENFESMYASVDTSVPSPPGPNCQLLGGDPFSPLLSNQYPVPSRFYPDLPGQPKDMISQPYWLGTPREHSYEAEFRAVSMKPTLLPSAPGPTVPYYRGQDVLAPGAGWPVAPQYPPKMSPAGWFRPMRTLPMDPGLGSSEEQGSSPSLWPEVTSLQPEPSDSGLGEGDTKRRRISPYPSSGDSSSPAGAPSPFDKETEGQFFNYFPN
Consider B2, for which the binding entry in the assay with FLAG-tagged GATA-3 [2] is “binds”.
